Measurements published in publication PMC5142155.
Results are given in words; binding and its absence hold for the method and conditions named. Binding seen in cells or lysates may run through a third protein. Some entries that bind do so weakly or less than the wild type. For part of these data: Tags and fused reporters may be left off the sequences shown. Values belong to the molecule of their own block, whether it stands above or below them.

By UniProt entry, the sequences of proteins in these tests, tags left out. Residues count along the entry.
UniProt Q9Y6N7, residues 26-1651: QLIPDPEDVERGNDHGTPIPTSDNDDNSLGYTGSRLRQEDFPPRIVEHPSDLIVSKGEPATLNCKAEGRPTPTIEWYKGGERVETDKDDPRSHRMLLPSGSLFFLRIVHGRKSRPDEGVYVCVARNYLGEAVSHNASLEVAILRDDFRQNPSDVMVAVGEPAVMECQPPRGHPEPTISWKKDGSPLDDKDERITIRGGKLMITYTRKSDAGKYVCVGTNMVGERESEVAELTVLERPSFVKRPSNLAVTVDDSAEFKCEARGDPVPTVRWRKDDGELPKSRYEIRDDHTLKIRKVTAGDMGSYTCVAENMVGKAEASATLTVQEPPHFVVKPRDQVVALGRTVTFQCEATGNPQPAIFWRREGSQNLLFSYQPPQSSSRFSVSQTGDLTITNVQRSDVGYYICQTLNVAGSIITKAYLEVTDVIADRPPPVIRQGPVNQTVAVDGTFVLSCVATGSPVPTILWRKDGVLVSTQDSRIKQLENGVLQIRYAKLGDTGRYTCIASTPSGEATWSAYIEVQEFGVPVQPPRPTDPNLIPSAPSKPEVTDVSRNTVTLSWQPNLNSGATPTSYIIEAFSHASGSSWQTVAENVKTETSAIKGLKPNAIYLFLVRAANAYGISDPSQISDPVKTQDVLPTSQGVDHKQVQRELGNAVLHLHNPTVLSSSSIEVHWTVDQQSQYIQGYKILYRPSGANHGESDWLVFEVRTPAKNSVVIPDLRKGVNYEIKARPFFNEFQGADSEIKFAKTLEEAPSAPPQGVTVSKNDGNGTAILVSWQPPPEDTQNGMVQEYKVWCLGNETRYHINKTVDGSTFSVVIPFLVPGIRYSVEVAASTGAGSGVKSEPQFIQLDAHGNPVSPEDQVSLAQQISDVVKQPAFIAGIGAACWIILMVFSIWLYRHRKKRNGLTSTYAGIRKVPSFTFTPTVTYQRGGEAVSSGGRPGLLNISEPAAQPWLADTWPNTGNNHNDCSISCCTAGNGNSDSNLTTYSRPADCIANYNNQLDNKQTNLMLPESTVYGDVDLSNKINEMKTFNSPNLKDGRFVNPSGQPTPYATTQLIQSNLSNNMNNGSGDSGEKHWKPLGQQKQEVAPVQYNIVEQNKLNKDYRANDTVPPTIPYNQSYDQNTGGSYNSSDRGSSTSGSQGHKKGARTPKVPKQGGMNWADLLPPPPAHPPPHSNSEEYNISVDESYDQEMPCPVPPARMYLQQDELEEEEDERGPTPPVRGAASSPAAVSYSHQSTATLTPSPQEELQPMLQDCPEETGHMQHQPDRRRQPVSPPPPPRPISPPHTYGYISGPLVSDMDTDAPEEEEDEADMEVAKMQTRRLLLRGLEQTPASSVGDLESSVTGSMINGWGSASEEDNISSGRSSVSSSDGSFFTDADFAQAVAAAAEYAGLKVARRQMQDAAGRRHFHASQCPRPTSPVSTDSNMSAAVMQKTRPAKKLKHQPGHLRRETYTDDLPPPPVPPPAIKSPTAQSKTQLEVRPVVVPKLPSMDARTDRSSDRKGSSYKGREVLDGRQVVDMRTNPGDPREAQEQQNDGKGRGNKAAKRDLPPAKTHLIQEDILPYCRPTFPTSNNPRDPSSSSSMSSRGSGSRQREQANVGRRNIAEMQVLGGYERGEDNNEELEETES
UniProt Q7Z6B7: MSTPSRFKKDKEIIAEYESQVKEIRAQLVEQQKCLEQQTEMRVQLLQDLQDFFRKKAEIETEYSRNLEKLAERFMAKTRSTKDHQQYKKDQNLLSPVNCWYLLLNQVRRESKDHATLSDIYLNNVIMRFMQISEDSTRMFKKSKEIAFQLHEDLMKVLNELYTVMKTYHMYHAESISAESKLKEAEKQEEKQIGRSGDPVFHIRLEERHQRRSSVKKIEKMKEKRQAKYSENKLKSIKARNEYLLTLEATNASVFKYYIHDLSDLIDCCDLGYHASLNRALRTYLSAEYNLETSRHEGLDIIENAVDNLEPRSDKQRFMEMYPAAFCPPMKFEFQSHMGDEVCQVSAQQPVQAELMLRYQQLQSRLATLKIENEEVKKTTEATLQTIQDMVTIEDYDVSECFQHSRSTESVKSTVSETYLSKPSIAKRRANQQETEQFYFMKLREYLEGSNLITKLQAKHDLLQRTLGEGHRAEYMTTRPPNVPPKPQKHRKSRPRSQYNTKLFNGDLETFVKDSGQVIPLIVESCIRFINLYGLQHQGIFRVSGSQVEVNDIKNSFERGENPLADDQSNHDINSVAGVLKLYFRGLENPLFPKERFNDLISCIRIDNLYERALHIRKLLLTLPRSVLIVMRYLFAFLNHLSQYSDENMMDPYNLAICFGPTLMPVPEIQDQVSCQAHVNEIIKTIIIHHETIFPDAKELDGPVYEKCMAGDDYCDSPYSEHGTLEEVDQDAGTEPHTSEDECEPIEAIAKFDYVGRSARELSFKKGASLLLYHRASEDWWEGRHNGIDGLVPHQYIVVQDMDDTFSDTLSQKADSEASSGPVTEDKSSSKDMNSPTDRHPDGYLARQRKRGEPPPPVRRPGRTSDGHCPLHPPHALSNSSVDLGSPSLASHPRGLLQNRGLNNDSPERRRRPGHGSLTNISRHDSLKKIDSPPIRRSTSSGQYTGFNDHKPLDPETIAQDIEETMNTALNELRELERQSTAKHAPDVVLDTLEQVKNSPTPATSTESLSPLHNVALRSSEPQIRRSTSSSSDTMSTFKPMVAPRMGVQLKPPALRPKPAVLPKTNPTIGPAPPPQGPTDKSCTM

Key:
Robo1-HA = Robo1-HA (UniProt Q9Y6N7); experiment: co-IP; LoVo cells transfected with Robo1-HA and srGAP1-GFP; lysed 48 h after transfection in IP lysis buffer (1% Triton-100, 10% glycerol, 1 mM EDTA in TBS); IP with anti-HA, immunoblot
srGAP1-Flag = srGAP1-Flag (UniProt Q7Z6B7); experiment: co-IP; LoVo cells (endogenous Robo1) cotransfected with Robo1-HA, srGAP1-Flag and/or USP33-GFP; IP lysis buffer (1% Triton-100, 10% glycerol, 1 mM EDTA in TBS); IP with anti-Flag, immunoblot
[1] = biological target: endogenous Robo1 of LoVo cells (human (endogenous in LoVo)) (UniProt Q9Y6N7); experiment: as above

- binding (Robo1-HA): binds
Molecule: srGAP1-GFP (from UniProt Q7Z6B7 1-1085)

- binding (srGAP1-Flag): binds
Molecule: endogenous Robo1 of LoVo cells (from UniProt Q9Y6N7 26-1651) (receptor)

- binding [1]: binds
B1: USP33-GFP (enzyme, UniProt Q8TEY7 1-942)
chain: MTGSNSHITILTLKVLPHFESLGKQEKIPNKMSAFRNHCPHLDSVGEITKEDLIQKSLGTCQDCKVQGPNLWACLENRCSYVGCGESQVDHSTIHSQETKHYLTVNLTTLRVWCYACSKEVFLDRKLGTQPSLPHVRQPHQIQENSVQDFKIPSNTTLKTPLVAVFDDLDIEADEEDELRARGLTGLKNIGNTCYMNAALQALSNCPPLTQFFLDCGGLARTDKKPAICKSYLKLMTELWHKSRPGSVVPTTLFQGIKTVNPTFRGYSQQDAQEFLRCLMDLLHEELKEQVMEVEEDPQTITTEETMEEDKSQSDVDFQSCESCSNSDRAENENGSRCFSEDNNETTMLIQDDENNSEMSKDWQKEKMCNKINKVNSEGEFDKDRDSISETVDLNNQETVKVQIHSRASEYITDVHSNDLSTPQILPSNEGVNPRLSASPPKSGNLWPGLAPPHKKAQSASPKRKKQHKKYRSVISDIFDGTIISSVQCLTCDRVSVTLETFQDLSLPIPGKEDLAKLHSSSHPTSIVKAGSCGEAYAPQGWIAFFMEYVKRFVVSCVPSWFWGPVVTLQDCLAAFFARDELKGDNMYSCEKCKKLRNGVKFCKVQNFPEILCIHLKRFRHELMFSTKISTHVSFPLEGLDLQPFLAKDSPAQIVTYDLLSVICHHGTASSGHYIAYCRNNLNNLWYEFDDQSVTEVSESTVQNAEAYVLFYRKSSEEAQKERRRISNLLNIMEPSLLQFYISRQWLNKFKTFAEPGPISNNDFLCIHGGVPPRKAGYIEDLVLMLPQNIWDNLYSRYGGGPAVNHLYICHTCQIEAEKIEKRRKTELEIFIRLNRAFQKEDSPATFYCISMQWFREWESFVKGKDGDPPGPIDNTKIAVTKCGNVMLRQGADSGQISEETWNFLQSIYGGGPEVILRPPVVHVDPDILQAEEKIEVETRSL
